Data as given in PubChem BioAssay AID1259259 (Sanger Institute, 2017)

Test: 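Synthetic lethal kinase partners of anchor drugs in colorectal cancer cells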 (primary screen)
Cells: SW1463 human colorectal cancer cells
Reagents: siRNA pool against human genes
Treatment: DMSO vehicle, or one anchor drug: BYL719 at 1 µM, cetuximab at 5 µg/ml, or trametinib at 10 nM
Detection: 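Viability relative to control pool 2 (non-targeting) averaged over replicates, robust z-score for knock-down with no drug, and for each anchor drug the mean synergy score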
Direction: robust z-score, knock-down alone: higher = more viable cells after knock-down
Active means: 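Knock-down called essential when its robust z-score without drug falls below -3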
Meaning of the calls: active = essential: viability loss from knock-down alone; inactive = no change from knock-down alone
This is one part, drawn at random, of 794 reagents tested. Over the whole deposit, 9 (1.1%) were called active. 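Calls rest on knock-down alone, not drug synergy; viability values seem capped at 1.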 Not all columns of the deposit are shown. The record does not give: the amount of reagent, the time to read-out.

| Gene | robust z-score, knock-down alone | Call |
| --- | --- | --- |
| AK7 | -0.262 | inactive |
| DYRK1B | 0.356 | inactive |
| STRADB | -0.58 | inactive |
| PIK3R3 | 0.163 | inactive |
| PIP4K2A | -1.06 | inactive |
| ELF3 | -1.47 | inactive |
| MAP3K5 | -1.11 | inactive |
| DGKA | 0.0278 | inactive |
| LRRK2 | 1.13 | inactive |
| CSNK1G1 | 1.13 | inactive |
| CAMK1G | -0.0342 | inactive |
| MAPK4 | 0.28 | inactive |
| TBCK | 1.08 | inactive |
| SMAD4 | 0.242 | inactive |
| PIK3R2 | 0.0841 | inactive |
| ACO1 | -0.616 | inactive |
| DYRK1A | -0.479 | inactive |
| CSF1R | 0.902 | inactive |
| BMX | -1.06 | inactive |
| IDH2 | -0.375 | inactive |
| DNMT3A | -0.258 | inactive |
| MOS | -0.214 | inactive |
| PRKAB1 | -1.21 | inactive |
| FXR1 | 1.13 | inactive |
| TWF2 | -1.17 | inactive |
| AXL | 0.0959 | inactive |
| PFKFB1 | -0.229 | inactive |
| ELP1 | -0.383 | inactive |
| ALPK3 | -0.85 | inactive |
| TPK1 | -0.99 | inactive |
| EPHA10 | 1.13 | inactive |
| PANK3 | 0.962 | inactive |
| GNE | -1.8 | inactive |
| KRAS | -1.75 | inactive |
| PRKD1 | 0.452 | inactive |
| BRSK2 | -0.091 | inactive |
| STYK1 | -0.733 | inactive |
| HK2 | -0.93 | inactive |
| MAP4K5 | 0.721 | inactive |
| SMG1 | 0.286 | inactive |
| BUB1 | -0.523 | inactive |
| BMPR1A | 1.07 | inactive |
| CDKL3 | -0.73 | inactive |
| PRKCZ | -0.371 | inactive |
| CDK15 | -2.03 | inactive |
| MYLK | -1.52 | inactive |
| PNCK | 1.13 | inactive |
| CDKL4 | 0.0315 | inactive |
| PRAG1 | -1.25 | inactive |
| MAPK3 | -1.14 | inactive |
| PKM | 1.13 | inactive |
| LMBR1 | 0.409 | inactive |
| GALK2 | -0.232 | inactive |
| SIK3 | 0.783 | inactive |
| PANK1 | 1.13 | inactive |
| STAG2 | 1.13 | inactive |
| SGK1 | -0.377 | inactive |
| MINK1 | 0.962 | inactive |
| CSNK1G3 | 0.281 | inactive |
| CKMT1B | -2.57 | inactive |
| MAP3K3 | -0.149 | inactive |
| ULK3 | -0.529 | inactive |
| EPHA1 | -0.299 | inactive |
